Source: the supplement of paper PMC5949888
± gives the standard deviation of the averaged measurements. Most values lie at the floor of the assay. Slopes are relative: functional sequences can read slightly below zero.

Each substance was assayed on Saccharomyces cerevisiae PS128 hsf1 delta, HSF1(1-493) fusion (assay: growth estimate (transactivation domain function in HSF1 fusion, heat-shock survival) (a.u. (slope of normalised read count over time)); higher = stronger growth at 37°C, i.e. more transactivation activity). Conditions: library: random library.

Row | Substance | growth estimate
1 | SGLSGGATGQPCKHFVPGGV | < -0.25
2 | SARQS | < -0.25
3 | MILSCR | < -0.25
4 | YKEGHTSVKRWVRSAAYFQS | < -0.25
5 | VLKEKVLF | 0.0622
6 | VEVYSNPTGFILQAILSDAP | < -0.25
7 | FASI | < -0.25
8 | PSDRPSAR | -0.202
9 | AKWYFPTVYGVTNMGKPIRL | -0.143
10 | WVQRGPTPLGMGVRGARKRH | < -0.25
11 | SSLDVVCHSRTCGESRPRKG | < -0.25
12 | TKADTSSYILQSQRSHDVRQ | < -0.25
13 | RSYVFKGWRSV | < -0.25
14 | GSDLRISRELFVAVTDLTNP | < -0.25
15 | SVECRKIRPEELRFQRRAHY | < -0.25
16 | PVVRF | < -0.25
17 | ALTEDSRVTRV | < -0.25
18 | VAILSWYPEGTI | < -0.25
19 | CLSQPPGWGRGYGDNDSGAV | < -0.25
20 | VQCGKLPKIAHCQRSQGRNE | < -0.25
21 | ETSRGLIQASCGNR | < -0.25
22 | SAWGASSAGWSHLRR | < -0.25
23 | KFFEG | < -0.25

Row | Substance | growth estimate
24 | GRSAVRWSAQSVRQPGVLGS | < -0.25
25 | FRIFLV | < -0.25
26 | NTSRLVRSPRVGSSANEYPS | < -0.25
27 | SKYPYSLARRIRRVVLPSYP | < -0.25
28 | IIRVTVGLLIDRPCGR | < -0.25
29 | VSDI | < -0.25
30 | PAETR | < -0.25
31 | YRPACRDYAKRLRRLIRHKF | < -0.25
32 | PTMYCHINSPQGTWLRRIYP | < -0.25
33 | LLITDDLRSSTGLICPAVLV | < -0.25
34 | SALHECMPGAVQVCAETSRA | < -0.25
35 | NHWSSPSTQSW | < -0.25
36 | LVR | -0.248 ± 0.003
37 | VVPEGVHCERP | < -0.25
38 | ISFS | < -0.25
39 | SLWESRLICCNTRLKCVWGL | < -0.25
40 | NIYADGLPCTKRLDPRQWLR | < -0.25
41 | EQLVTRRDRLALKLQPPTRV | < -0.25
42 | KGIPVSEKQGCGSADSGLSS | < -0.25
43 | TLQGLQAAERWGVLES | < -0.25
44 | MYESERAWRLRMAVNPRPS | < -0.25
45 | YLACS | < -0.25
46 | VQGQRGRAGEKYQSRLETWL | < -0.25

Row | Substance | growth estimate
47 | GVGDTCTLRRPIVGIVYMQS | < -0.25
48 | YTDVAVI | < -0.25
49 | LSQWVWLVSLTR | < -0.25
50 | RPAN | -0.246
51 | AHESVKGGENANSLRRHSFD | < -0.25
52 | TLDSSAEALGPRQSAVVSHQ | < -0.25
53 | SEVAHQHRRASFWRHSTARP | < -0.25
54 | SVTQVIPCPGRDIPRACHWN | < -0.25
55 | PAVAHKEGLDLL | < -0.25
56 | CSIEYSPIRARCPLRSMPPP | < -0.25
57 | QHHGSLTTPP | < -0.25
58 | QHAKLYRRQGVKTVKGRMAG | < -0.25
59 | NGKGEAASATTT | < -0.25
60 | GNSQFS | < -0.25
61 | RWIIA | < -0.25
62 | VADAPTRLHVRDEGLVIEGP | < -0.25
63 | RRL | < -0.25
64 | IMGISNRFVV | -0.231
65 | NIRSKGLRLTVRRSANAGHR | -0.246
66 | ALTTRVER | < -0.25
67 | SLFLPRPRWG | < -0.25
68 | PCKCC | < -0.25
69 | VMPELQLCLFPLERRISLPV | < -0.25

Row | Substance | growth estimate
70 | ERHWVGSARKSRLQYPARLR | < -0.25
71 | FGSIFESYAAAAGLLCGVTY | < -0.25
72 | KNYMTRLAYPARSRA | < -0.25
73 | PFHVSRLGSRARL | < -0.25
74 | RPLRLSIMDRWYCV | < -0.25
75 | SEGFRTSPFTGQLRPWVCRR | < -0.25
76 | GVPST | < -0.25
77 | RGSRRGRLPPSL | < -0.25
78 | PYLGFKVKYMLWFGTYTTPL | < -0.25
79 | RFRTCRHVRPFKMFRLLQVW | < -0.25
80 | HTQVSERVYVGGPRRTSETD | < -0.25
81 | GKND | < -0.25
82 | IKKT | < -0.25
83 | RAVSPTTASLEGTPA | < -0.25
84 | SHP | < -0.25
85 | GAIIEEEG | < -0.25
86 | NLCL | < -0.25
87 | YLPRLIIP | < -0.25
88 | TESPRRSYASPEREVLSDSV | < -0.25
89 | CDASLSRWTITTLSRNLRME | < -0.25
90 | HVTARRYVSVHSLLVSFRPG | < -0.25
91 | AHRYQPRSRPLSRSRLQ | < -0.25
92 | CIAGGDNWLRRWQSARSVPI | < -0.25

Row | Substance | growth estimate
93 | RLSLRGLDYGPARARAFKLG | < -0.25
94 | IWGHCKMRQSVSQVSLSRIT | < -0.25
95 | GVALYVIS | < -0.25
96 | DTPVLGPRDNRIKDKVVLLS | < -0.25
97 | SKCEVCNRLLHTGAYFLNEC | < -0.25
98 | SLSFGGL | < -0.25
99 | TVWVSLKCRRARLRAQPARS | < -0.25
100 | YFGSVHKLRSQNKLRSRTGH | < -0.25
101 | RVLPVKGYRE | -0.231
102 | SGLSPVWRSIAKHFLESGKV | < -0.25
103 | WSTVEPVSSKGPVAARTFAG | < -0.25
104 | SERHPVAYMVCGEGAGYCYW | < -0.25
105 | VGLSGDALGAYALVFPMVLG | < -0.25
106 | LVYRIR | -0.193
107 | LGEGSAPEGYQDSGLLRLHI | 0.0596
108 | EFAERRRSTTFGGELLCLRA | < -0.25
109 | DCVLSRLKLGNLVRVLSIVP | < -0.25
110 | NAFRRWSR | < -0.25
111 | YVL | -0.245
112 | CYGT | < -0.25
113 | EMIVSYEGLVSATLSPVAVY | -0.248
114 | EWRIPGRVRGWRRGSRRASK | < -0.25
115 | GSVGQVLSVTQLRHLAARPA | < -0.25

Row | Substance | growth estimate
116 | RRVVLSYVARQHQSGSCGAR | < -0.25
117 | SVYATNSLAHGSRKNPFATT | < -0.25
118 | GHGPGKR | < -0.25
119 | LYELGLKGAVLPFCRRPTLR | < -0.25
120 | ECYMFH | < -0.25
121 | LLYYAG | < -0.25
122 | SWNLLIASLSPRRSQCRNSH | < -0.25
123 | RSHVVTQLHVGCFVPKAYAR | < -0.25
124 | EVP | < -0.25
125 | VSRRTGRKNVQGNVLTTRRR | < -0.25
126 | PAVRLYSTPPCQICPAPRPS | < -0.25
127 | SVSAVP | < -0.25
128 | PCRIVVSLSGCRVMLVTEMS | < -0.25
129 | IDV | < -0.25
130 | IRAWPWD | < -0.25
131 | SNRGCQKFRD | -0.197
132 | GPSVFRCGLDDCHTFYEGTP | < -0.25
133 | RPTRR | < -0.25
134 | PLT | < -0.25
135 | WESSNDMEG | < -0.25
136 | PGAVLLLTQIKFDASRGHPP | < -0.25
137 | AALNKSHR | < -0.25
138 | AHPRTNSSGVCRTSMLCDRG | < -0.25

Row | Substance | growth estimate
139 | YSLLPITYQIAQSWISDLHP | < -0.25
140 | GCHDRP | < -0.25
141 | FSQGYVPHREAH | < -0.25
142 | LESGDRVGRRNL | < -0.25
143 | GEEEDNSEGEAVAAPTDTVE | < -0.25
144 | YLTVYTGAAPVPLIWAKLVL | < -0.25
145 | QPVGLVR | < -0.25
146 | EIKGLHLFPLCDTHNSMLVR | < -0.25
147 | GSNNSGATARVDKG | < -0.25
148 | VSRQGNPRGIYSPD | < -0.25
149 | GSGLSLGTAGKLANVALSSP | < -0.25
150 | GLLVYITHATILSLRYSPQE | < -0.25
151 | VENRPRSG | < -0.25
152 | CLCRIE | < -0.25
153 | HRNCIAESGILGH | < -0.25
154 | LPVTCERTSQRRENGPGARL | < -0.25
155 | LKAWLSVHSGRVDPYGLAYC | < -0.25
156 | GEGNAPCGWESYRRGRSTMA | < -0.25
157 | ELRC | < -0.25
158 | NLR | < -0.25
159 | SSKRYNPHVSTGRNANRHTL | < -0.25
160 | GKALVL | < -0.25

A portion of the results above:
Row | Substance | growth estimate
71 | FGSIFESYAAAAGLLCGVTY | < -0.25
72 | KNYMTRLAYPARSRA | < -0.25
73 | PFHVSRLGSRARL | < -0.25
74 | RPLRLSIMDRWYCV | < -0.25
75 | SEGFRTSPFTGQLRPWVCRR | < -0.25
76 | GVPST | < -0.25
77 | RGSRRGRLPPSL | < -0.25
78 | PYLGFKVKYMLWFGTYTTPL | < -0.25
79 | RFRTCRHVRPFKMFRLLQVW | < -0.25
80 | HTQVSERVYVGGPRRTSETD | < -0.25
81 | GKND | < -0.25
82 | IKKT | < -0.25
83 | RAVSPTTASLEGTPA | < -0.25
84 | SHP | < -0.25
85 | GAIIEEEG | < -0.25
86 | NLCL | < -0.25
87 | YLPRLIIP | < -0.25
88 | TESPRRSYASPEREVLSDSV | < -0.25
89 | CDASLSRWTITTLSRNLRME | < -0.25
90 | HVTARRYVSVHSLLVSFRPG | < -0.25
91 | AHRYQPRSRPLSRSRLQ | < -0.25
92 | CIAGGDNWLRRWQSARSVPI | < -0.25
93 | RLSLRGLDYGPARARAFKLG | < -0.25
94 | IWGHCKMRQSVSQVSLSRIT | < -0.25
95 | GVALYVIS | < -0.25
96 | DTPVLGPRDNRIKDKVVLLS | < -0.25
97 | SKCEVCNRLLHTGAYFLNEC | < -0.25
98 | SLSFGGL | < -0.25
99 | TVWVSLKCRRARLRAQPARS | < -0.25
100 | YFGSVHKLRSQNKLRSRTGH | < -0.25
101 | RVLPVKGYRE | -0.231
